{"source": "paper doi:10.1101/2023.10.06.561239", "about": "(bioRxiv, 2023)", "binders": {"B1": {"name": "mouse his-DMC1 (protein, UniProt Q61880 1-340)", "chain": "MKEDQVVQEESGFQDDEESLFQDIDLLQKHGINMADIKKLKSVGICTIKGIQMTTRRALCNVKGLSEAKVEKIKEAANKLIEPGFLTAFQYSERRKMVFHITTGSQEFDKLLGGGIESMAITEAFGEFRTGKTQLSHTLCVTAQLPGTGGYSGGKIIFIDTENTFRPDRLRDIADRFNVDHEAVLDNVLYARAYTSEHQMELLDYVAAKFHEEAGIFKLLIIDSIMALFRVDFSGRGELAERQQKLAQMLSRLQKISEEYNVAVFVTNQMTADPGATMTFQADPKKPIGGHILAHASTTRISLRKGRGELRIAKIYDSPEMPENEATFAITAGGIGDAKE"}}, "key": {"[1]": {"target": "T1, GST-tagged mouse BRCA2 fragment (I2327-Q2379), F2351D variant (mouse) (UniProt P97929)", "T1 sequence": "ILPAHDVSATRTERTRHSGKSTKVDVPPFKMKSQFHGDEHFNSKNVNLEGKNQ", "assay": "pull-down"}, "[2]": {"target": "T2, GST-tagged mouse BRCA2 fragment (I2327-Q2379), corresponding to human F2s3 (mouse) (UniProt P97929)", "T2 sequence": "T1 sequence with D25F", "assay": "pull-down"}}, "note": "Positions count from the first letter of the chain named. No constants are given. Whether binding was seen depends on the method and setting. In cells and extracts the contact can be indirect. Some results given as binding are weak or reduced against the parent protein; the word gives no strength. Sequences can lack the tags named with a protein.", "data": [{"binder": "B1", "values": [{"measurement": "binding", "setting": "[1]", "result": "no binding"}, {"measurement": "binding", "setting": "[2]", "result": "binds"}]}]}
